No constants are given. Whether binding was seen depends on the method and setting. Some binding calls cover weakened binding; strength is not graded here.
B1: hz14A9-2.3 (antibody, human IgG4 S228P, kappa, V domains shown)
VH: QVQLVQSGAEVKKPGASVKVSCKVSGFNIEDDYIEWVRQAPGQGLEWMGRIDPANDKTKYAQKFQGRVTMTGDTSTNTVYMELSSLRSEDTAVYYCARPGLRRYYSMDYWGQGTLVTVSS
VL: DIQMTQSPSSLSASVGDRVTITCKASENVVSYVSWYQQKPGKAPKLLIYGASNRYTGVPSRFIGSGSSTDFTLTISSLQPEDFATYYCGQSYSYPLTFGQGTKLEIKR
B2: hz14A9-2.4 (antibody, human IgG4 S228P, kappa, V domains shown)
VH: QVQLVQSGAEVKKPGASVKVSCKVSGFNIEDDYIEWVRQAPGQGLEWMGRIDPANDKTKYAQKFQGRVTMTGDTSTNTVYMELSSLRSEDTAVYYCTRPGLRRYYSMDYWGQGTLVTVSS
VL: DIQMTQSPSSLSASVGDRVTITCKASENVVSYVSWYQQKPGKAPKLLIYGASNRYTGVPSRFIGSGSSTDFTLTISSLQPEDFATYYCGQSYSYPLTFGQGTKLEIKR
B3: Xi2H8 (antibody, human IgG4 S228P, kappa, V domains shown)
VH: QVQLKESGPGLVAPSQSLSITCTVSGFSLTNYGVHWVRQPPGKGLEWLGIIWAGGSTNYNSALMSRLSISKDNSKSQVFLKMNSLQTDDTAMYYCARDDYASMDYWGQGTSVTVSS
VL: DAFMTQTPLSLPVSLGDQASISCRSSQSLVHSNGNTYLHWYLQKPGQSPKLLIYKVSNRFSGVPDRFSGSGSGTDFTLKISRVEAEDLGVYFCSQSTHVPYTLGGGTKLEIKR
B4: Xi3F10 (antibody, human IgG4 S228P, kappa, V domains shown)
VH: EVQLQQSVAELMKPGASVKIYCKATGYTFSRYWIEWVKQRPGHGLEWIGEFIPGSDTTNFNEKFKGKATFTAEISSNTAYMQLSSLTSEDSAVYFCARGGLRRMDYWGQGTSVTVSS
VL: DIVMTQTPAIMSASPGEKVTMTCRASSSVSSTYLHWYQQKSGASPKLWIYTTSTLASGVPARFSGSGSGTSYSLTISSVEAEDAATYYCQQFSDSTWTFGGGTKLEIKR
B5: Xi16E5 (antibody, human IgG4 S228P, kappa, V domains shown)
VH: EVQLQQSGPELKKPGETVKISCKASGYTFTNYGMNWVKQVPGKGLKWMGWINTNTGEPTYAEEFKGRFAFSLETSARTAFLQINNLKNEDTATYFCTRFSHLRGPMDYWGQGASVTVSS
VL: DAVMTQTPLSLPVSLGDQASISCRSSQSLVHSNGYTYLHWYLQKPGQSPKLLIYKVSNRFSGVPDRFSGSGSGTDFTLKISRLEAEDLGVYFCSQSTHVPPTFGGGTKLEIKR
B6: Xi14A9 (antibody, human IgG4 S228P, kappa, V domains shown)
VH: EVQLQQSGAEVARPGASVKLSCTVSGFNIEDDYIEWVKQRPEQGLEWIGRIDPANDKTKYAPKFQDKATITGDTSSNTAYLQLSSLTSEDTAVYYCTRPGLRRYYSMDYWGQGTSVTVSS
VL: NIVLTQSPKSMSMSVGERVTLSCKASENVVSYVSWYQQKPEQSPKLLIYGASNRYTGVPDRFIGSGSSTDFTLIISSFQPEDLADYHCGQSYSYPLTFGAGTKLELKR
B7: hz3F10-1.2 (antibody, human IgG4 S228P, kappa, V domains shown)
VH: QVQLVQSGAEVKKPGSSVKVSCKASGYTFSRYWIEWVRQAPGQGLEWMGEFIPGSDTTNYAQKFQGRVTITAEISTNTAYMELSSLRSEDTAVYYCARGGLRRMDYWGQGTLVTVSS
VL: DIQMTQSPSSLSASVGDRVTITCRASSSVSSTYLHWYQQKPGKAPKLLIYTTSTLASGVPSRFSGSGSGTDFTLTISSLQPEDFATYYCQQFSDSTWTFGQGTKLEIKR
B8: hz3F10-2.2 (antibody, human IgG4 S228P, kappa, V domains shown)
VH: QVQLVQSGAEVKKPGSSVKVSCKASGYTFSRYWIEWVRQAPGQGLEWMGEFIPGSDTTNYAQKFQGRVTITAEISTNTAYMELSSLRSEDTAVYYCARGGLRRMDYWGQGTLVTVSS
VL: DIQMTQSPSSLSASVGDRVTITCRASSSVSSTYLHWYQQKPGKAPKLLIYTTSTLASGVPSRFSGSGSGTDFTLTISSLQPEDFATYYCQQFSESTWTFGQGTKLEIKR
B9: hz3F10-4.2 (antibody, human IgG4 S228P, kappa, V domains shown)
VH: QVQLVQSGAEVKKPGSSVKVSCKASGYTFSRYWIEWVRQAPGQGLEWMGEFIPGSDTTNYAQKFQGRVTITAEISTNTAYMELSSLRSEDTAVYYCARGGLRRMDYWGQGTLVTVSS
VL: DIQMTQSPSSLSASVGDRVTITCRASSSVSSTYLHWYQQKPGKAPKLLIYTTSTLASGVPSRFSGSGSGTSYTLTISSLQPEDFATYYCQQFSESTWTFGQGTKLEIKR
B10: hz3F10-5.2 (antibody, human IgG4 S228P, kappa, V domains shown)
VH: QVQLVQSGAEVKKPGSSVKVSCKASGYTFSRYWIEWVRQAPGQGLEWMGEFIPGSDTTNYAQKFQGRVTITAEISTNTAYMELSSLRSEDTAVYYCARGGLRRMDYWGQGTLVTVSS
VL: DIQMTQSPSSLSASVGDRVTITCRASSSVSSTYLHWYQQKPGKAPKLWIYTTSTLASGVPSRFSGSGSGTSYTLTISSLQPEDFATYYCQQFSDSTWTFGQGTKLEIKR
B11: hz3F10-6.2 (antibody, human IgG4 S228P, kappa, V domains shown)
VH: QVQLVQSGAEVKKPGSSVKVSCKASGYTFSRYWIEWVRQAPGQGLEWMGEFIPGSDTTNYAQKFQGRVTITAEISTNTAYMELSSLRSEDTAVYYCARGGLRRMDYWGQGTLVTVSS
VL: DIQMTQSPSSLSASVGDRVTITCRASSSVSSTYLHWYQQKPGKAPKLWIYTTSTLASGVPSRFSGSGSGTSYTLTISSLQPEDFATYYCQQFSESTWTFGQGTKLEIKR

molecular target: cynomolgus/rhesus macaque CD47 protein, His Tag (ACRObiosystems, Cat. No. CD7-C52H1) (cynomolgus monkey); assay: Biacore SPR

binding, binds:
B1
B2
B3
B4
B5
B6
B7
B8
B9
B10
B11
